These results are taken from PubChem BioAssay AID1347426 (Functional Genomics Laboratory (NCATS/FGL), 2020).

Out of some 31,000 sequences screened, about 1,400 (4.5%) were called active.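 The calls were made as follows: active = median seed-adjusted z-score above 1 or below -1; inactive = the rest.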 The list shows a part of the results.

A short description of the assay: Novel Modifiers of Survival Motor Neuron (SMN) Protein: Gene Identification via Genome-wide siRNA Screen.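 Also: luminescence tracks full-length SMN protein made from the SMN2 reporter.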 The conditions noted are these: HEK293T SMN2-luciferase reporter, siRNA knockdown, 72 h; actives lie on both sides. Put shortly:
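Steps: spot 1 pmol siRNA, add Lipofectamine RNAiMax in serum-free DMEM, seed HEK293T SMN2–luciferase reporter cells; incubate 72 h at 37 °C; add ONE-Glo; normalize luminescence to control siRNA, log10, MAD. Candidates: |MAD| > 1.0.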
Regarding CAGCAUACUUUAUCGCCUUTT against DICER1, the median seed-adjusted z-score was inactive: 0.101.
Next, CCCUUUAGCUAACUAAUAATT against PTPN20A: inactive: 0.
As to GGCCUUCAUUCUUUUCGUATT against ZNF587, the median seed-adjusted z-score is inactive: -0.178.
In the case of GAAUCUGUCAGGAAUGACATT against RARB, the median seed-adjusted z-score is inactive: 0.409.
For GGUCAUGGAUGUGCACGAUTT against KRT14 the value was inactive: -0.127; for GGAUAUGCUUUCAAUGGGATT against TSHR, inactive: 0.851; for GGAAAUUGCUAGAGUAGAATT against NDC80, inactive: 0.0855.
For AAAUAGUGAUAGAUCCAUUTT against HPRT1 the value was inactive: -0.0463.
Turning to AGAUCAUGACUUGUGCUGATT against SEZ6L2, the median seed-adjusted z-score was inactive: -0.331.
For GGUUAUAGAGUCUAUCAUUTT against CDS1, the median seed-adjusted z-score was inactive: 0.0208.
Consider GGCAGACAGAAUUCGCAUATT against GUCY2F, for which the median seed-adjusted z-score was inactive: 0.188.
Next, GGAUCUAAACAGGAAGGAATT against NES: inactive: 0.613; GAUUCAACUUAUCAGUAUATT against INPP1: inactive: -0.047.
In the case of GCUAAGGUGUGGAUGGACATT against SEMA5B, the median seed-adjusted z-score was inactive: 0.641.
On to GCGGAUUGUUCGGAACAAATT against PLCL1, for which the median seed-adjusted z-score is inactive: 0.000254.
As for CCGCUAGAAUUACAAUACATT against MSH3, the median seed-adjusted z-score was inactive: 0.428.
On to CGUUUACCAUGCUAUCUAUTT against TFCP2, for which the median seed-adjusted z-score was inactive: 0.14.
For GGACCUACAAGAUCAACUATT against TRAF3IP3 the value was inactive: 0.0238; for AAGAGUUCAUAGACAGUGATT against SCGB2A1, inactive: 0; for GAGCCGAAGUUGUACAGAATT against PPARGC1B, inactive: -0.366.
CACCGGAGCUUUCAAAGAATT against LTA: the median seed-adjusted z-score is inactive: 0.273.
For UCAUCAUCGUAUCAAUUGUTT against VAMP7 the value was inactive: -0.00527; for GCAUCUAAUUUGUAUGAAUTT against DCK, inactive: 0.123; for CAGUCGAGUUGGAACGAUATT against CMYA5, inactive: -0.858.
Next, UCAGUAUCUUGGUCCUGUATT against CALCB: inactive: 0; UGUCCUUCGUUUAUCCCAATT against B4GALNT4: inactive: -0.567; GCCGGCUGAUGAUCCCUAATT against UNC5A: inactive: 0.517.
Next, CCAUGUUCCUUACACCUCUTT against GPR15: inactive: 0.101.
Regarding GAACCAGAUGAGACAUUCATT against SPSB1, the median seed-adjusted z-score was inactive: -0.378.
Next, GGAGAUGCCUGGUUGAUGATT against IL10RA: inactive: 0.156.
GGAAAGCAGGGAUACCAGUTT against PRKCE: the median seed-adjusted z-score was inactive: 0.568.
On to GGAACCCAGAGGAAUGUGATT against HTR3E, for which the median seed-adjusted z-score was inactive: -0.717.
Take AGAAGACUAUCGGACCCAATT against DLGAP2: the median seed-adjusted z-score was inactive: 0.295.
As for GCAGGACAAACAACGAGUATT against ACADSB, the median seed-adjusted z-score is inactive: -0.436.
On to GUAGACAACGGAAAUAUUUTT against RFESD, for which the median seed-adjusted z-score is inactive: -0.503.
For GGGCUGAGUUAAAGGAGAATT against PTGDS the value was inactive: 0.48; for CGAGUACGGCCCAGACUUATT against LTBP4, inactive: 0.19; for GGUUAUUGAGAAUACUGGATT against DDR2, inactive: 0.252.
Next, GGAUGCCUUUUGUUCGAAATT against TFIP11: inactive: -0.0562.
For GGAAUGUCAGAAUUACCAATT against GTF2I the value was inactive: 0.379; for GGUCCUAAAGGAUGAGAAATT against WFIKKN2, inactive: -0.353.
Regarding GGAACUACAAGAACCACAATT against FEZF2, the median seed-adjusted z-score is inactive: 0.203.
For GUGUAACCAUCAAAUCGGATT against NCOA1 the value was inactive: 0.537.
As for GGCUGAUAGCUGGAUGAUATT against MID1, the median seed-adjusted z-score was inactive: -0.294.
In the case of GACCAAUUCUAGAUACCAATT against PPP2R1B, the median seed-adjusted z-score was inactive: -0.295.
For CCAUAGUAGUGACUACCAUTT against GRIA3 the value was inactive: -0.358.
Consider GGAAGGUUCCAUGAAGCGATT against WNT3A, for which the median seed-adjusted z-score was inactive: -0.66.
For the sequence CAAACUCAAGGGUCUCAAATT against ZKSCAN4, the median seed-adjusted z-score is inactive: 0.0558.
CUGCUGUCUUUAUAUCGGATT against NVL: the median seed-adjusted z-score is inactive: 0.701.
For CUACAUAAUCUUCUAGAUATT against ARL8B, the median seed-adjusted z-score was inactive: -0.477.
On to GGUUCUCUCUGGACCGUCATT against PARD6G, for which the median seed-adjusted z-score is inactive: 0.
As for CGACUUCACAUACAAUUUATT against ZNF780A, the median seed-adjusted z-score is inactive: 0.298.
Take CCGAAGAUGAGGGAACGUATT against ROBO3: the median seed-adjusted z-score was inactive: 0.131.
Next, CAGUGAAAGAAGAUCUAAATT against RAB23: inactive: 0.45; GGACGUACAGUGGUGGUAATT against ABCA3: inactive: -0.363; GAGCUUGUAUAUGAAGCUATT against PDCD4: inactive: -0.0842.
For GCUGCUCGCUACUUAACUATT against ACO1 the value was inactive: -0.197; for GGAUUUGGAUUGAUAUAUUTT against VRK2, inactive: -0.183; for GAGUUGAGGUUUAAGACCATT against CACNG4, inactive: -0.0702.
For CAAUUGAAGGAGUUCCUAUTT against AHSA2 the value was inactive: -0.881; for GGACGGUGUUAAGUCGUCATT against AASS, inactive: -0.626.
Take GGAUUUGGAGUAGAUCAAUTT against TIAL1: the median seed-adjusted z-score was inactive: -0.985.
Next, GCAGCUCUCAUUUUCCAUATT against CCR5: inactive: -0.0281; GGCUGAGAAAAUAUCCGAATT against PDE8A: inactive: 0.302; GCUGGUUCAUGGUAGAUUUTT against HCN4: inactive: -0.282.
Next, CGCUCACAGUCAUACACGUTT against SLC39A7: inactive: 0.0554; GGUCAGGCCUUUUUAUACATT against ZNF354A: inactive: 0.401; GCACCAAUGUUUAUCUACATT against MYOT: inactive: 0.091.
GGGAUCUUAUGGAAAGGUUTT against ACTR3B: the median seed-adjusted z-score was inactive: -0.301.
Next, UGGAGGAAAUUUUCCGCAATT against CASP1: inactive: -0.331; CAGUCGAACCUUUCCCAGATT against MSRA: inactive: -0.0316; GGAAAAUCACAGCUGAUUATT against ZNF26: inactive: 0.
Next, GGAUAAAACCCUCCCUGAATT against SNAPC4: inactive: -0.62; GACUGCUGCUUAUCAACAATT against SPR: inactive: 0.0329.
For GGCCUUGCGGUACUACUAUTT against ELK1 the value was inactive: -0.52.
For the sequence CCUUCGUUCCAGUCAAAUUTT against ZNF14, the median seed-adjusted z-score is inactive: -0.0802.
For CUAUGAGCCUAACACUGUATT against RALBP1 the value was inactive: -0.0514; for GCGCAUCACUAGCUGCAAATT against ABHD8, inactive: -0.48.
For GCACAAGUGCUACAGCGAUTT against PKP3 the value was inactive: 0.205; for CUGCCUAAACAAGAGGUUATT against UBA5, inactive: -0.105; for GCGACUACACUAUUGGAUUTT against ITGB4, inactive: -0.226.
Consider GCAUCAAGACCUCCAAGUATT against ATP8B2, for which the median seed-adjusted z-score was inactive: -0.268.
Regarding GGACCAACCUGUGAACGAUTT against ITGB6, the median seed-adjusted z-score was inactive: -0.5.
As to CCCUUUUUCCGGCACAUGATT against RPS6KB2, the median seed-adjusted z-score was inactive: 0.
Next, GGAGUAACCUGACCGUGAATT against LCN8: inactive: 0.112.
Regarding GCAGCUGCCGGAAAUGUUATT against KRT81, the median seed-adjusted z-score is inactive: -0.0955.
For GGAAUUUAUGGUUCGAAAUTT against MUT the value was inactive: 0.333; for GCAGCUCAGUUUCGAUGGATT against RAET1G, inactive: -0.0655.
Next, GGAGGAUUUGGAUUAAGCATT against SNTG1: inactive: 0.167; CAAACAGCCGCAAAACUCATT against GZMK: inactive: -0.303; GCCCUACGUUUUCAACGGATT against PSMB1: inactive: -0.35.
Next, CAACAAAUGUGGACGGAGATT against NTRK1: inactive: -0.223; GGAUUGGAGACUUACGUUATT against ADIPOQ: inactive: 0.557.
Take CCAAGUGACAAACAAGUAATT against TRDN: the median seed-adjusted z-score was inactive: 0.195.
GGAUGUAUACGGAGGAGAATT against WBSCR17: the median seed-adjusted z-score is inactive: 0.
On to CAAUGGUGUCUACAAGAUUTT against SLCO1C1, for which the median seed-adjusted z-score is inactive: 0.071.
For GUUUCUGGGUGAUAAAAUUTT against FCGR2B, the median seed-adjusted z-score was inactive: -0.163.
Next, CCUUGCAACAUGUUCGUGATT against KRIT1: inactive: -0.447.
Next, CCAUCAAGAGGUUCCCGUATT against ABCA3: inactive: -0.363; CAAUAUGGGUACCUACAGATT against MMP19: inactive: 0.43.
Next, GUCCAGGAAUUCAUCGAUATT against BCS1L: inactive: 0.167.
As for GGACUGGGAUUUCGAGCAATT against NETO2, the median seed-adjusted z-score was inactive: -0.136.
For the sequence GGAGAUAGAACCUUCCAGATT against HLA-B, the median seed-adjusted z-score is inactive: -0.355.
For GGAUGUACUUUCCAAACAATT against MBTPS1 the value was inactive: -0.551; for CGCUGGAUGCCGAAAAUGATT against ABCB10, inactive: -0.1; for GGAGAGAUAUCUGCCCUCGTT against MARVELD3, inactive: -0.021.
For GGACAGUACCUGUUUAAGUTT against METT10D the value was inactive: 0.455.
